# Measured values: PubChem BioAssay AID504467 (National Center for Advancing Translational Sciences (NCATS), 2011)
# Among all 330,000 compounds or so, about 7,700 (2.3%) were called active. The shares of active, inactive and inconclusive entries below differ from those in the screen. The call rests on the fitted dose curve; in most records, active means well fitted inhibition curve with a large enough effect; inconclusive means small, poorly fitted or top-dose-only effect, or effect the other way; inactive means flat fitted curve, though single readings scatter. A potency beside an inconclusive call is a rough fit, not a confirmed value.
# Assay: qHTS screen for small molecules that inhibit ELG1-dependent DNA repair in human embryonic kidney (HEK293T) cells expressing luciferase-tagged ELG1; further: nearly all actives have a fitted effect of over 55% in size
# Conditions: HEK293T ELG1-luciferase reporter, luminescence, 16 h, DNA damage induced by 5-fluorouridine; activity change, negative = inhibition: at 46.1 µM (top of the series)
# How it was run: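 Step one: seed 2,000 cells per well. Step two: pin-transfer compound or DMSO alongside 5-fluorouridine. Step three: incubate 16 hr, 37 °C, 5% CO2. Step four: add ONE-Glo, wait 30 min, read luminescence.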
# On the % scale 0 is the no-effect control and ±100 the full control effect; potency means the concentration at half of the fitted maximal effect.
Structure (SMILES),"activity change, negative = inhibition",Potency
Cc1ccc(NC(=O)c2cc(Cl)ccc2[N+](=O)[O-])cc1C,inactive: -6.66%,
Oc1cc(-c2ccncc2)cc2cccnc12,,active: 16.4 µM
Cc1ccc(/C=C/C(=O)Nc2ccc(Oc3ccccc3)cc2)o1,,"inconclusive: 23.1 µM [inhibitor, partial curve]"
COc1cc(C(=O)Nc2ccc3c(c2)N(C(=O)CCN(C)C)c2ccccc2CC3)cc(OC)c1OC,,"inconclusive: 16.4 µM [activator, partial curve]"
O=C(Nc1nnc(Cc2ccccc2)s1)Nc1ccccc1F,,"inconclusive: 4.61 µM [activator, full curve, poor fit]"
CCc1ccc(NC(=O)N(CCN2CCOCC2)Cc2ccc3c(c2)CCCN3CC)cc1,,"inconclusive: 20.6 µM [inhibitor, single point]"
COc1ccc(C(=O)Nc2ccc(N3CCOCC3)cc2)cc1S(=O)(=O)NC1CCCC1,,"inconclusive: 29.1 µM [inhibitor, single point]"
Cc1onc(-c2c(F)cccc2Cl)c1C(=O)Nc1cccc(S(=O)(=O)NCc2ccco2)c1,,"inconclusive: 23.1 µM [inhibitor, single point]"
CC(NC(=O)c1ccco1)c1nc(-c2ccccc2)no1 (centres undefined),inactive: -16.5%,
COc1cc(/C=N/NC(=O)CSc2n[nH]c(=O)[nH]c2=O)cc(OC)c1O,inactive: 6.78%,
Cc1nn(-c2ccccc2)c(C)c1C(=O)OCC(=O)N1c2ccccc2NC(=O)C1(C)C,,active: 18.4 µM
COc1ccc(S(=O)(=O)N2CCCCC2)cc1NC(=O)CCNC(=O)c1ccc(Br)cc1,inactive: 14.2%,
OCc1ccccc1OCCCOc1cccc2cccnc12,,"inconclusive: 31.6 µM [activator, partial curve, poor fit]"
CCOC(=O)C1=C(C)N(CC)C(=S)NC1c1ccc(Cl)cc1 (centres undefined),inactive: -5.86%,
CC(=O)N1CCN(c2ccc(S(=O)(=O)NCCN(C(C)C)C(C)C)cc2[N+](=O)[O-])CC1,inactive: 5.01%,
Cc1cccc(Nc2nnc(SCC3CCCCO3)s2)c1C (centres undefined),,"inconclusive: 16.4 µM [activator, partial curve]"
Cc1ccc(NC(=O)c2cccc(NC3=NC4CS(=O)(=O)CC4S3)c2)cc1C (centres undefined),,"inconclusive: 23.1 µM [activator, partial curve, poor fit]"
O=C(Nc1nccs1)c1ccc([N+](=O)[O-])cc1Cl,inactive: 13.8%,
COCCNC(=S)N(CCc1c(C)[nH]c2ccccc12)Cc1cccnc1,inactive: -5.52%,
C[C@@H](C(=O)Nc1ccc2ccccc2c1)[C@H]1C[C@]1(C)[C@H](NP(=O)(c1ccccc1)c1ccccc1)c1ccccc1,,"inconclusive: 29.1 µM [inhibitor, single point]"
COc1cnn(-c2ccc(C)cc2)c(=O)c1Cl,,"inconclusive: 20.6 µM [activator, partial curve]"
Cc1[nH]cnc1C(=O)N/N=C/c1ccc([N+](=O)[O-])s1,,"inconclusive: 3.26 µM [inhibitor, partial curve]"

# Part of the list above, with tabs:
Structure (SMILES)	activity change, negative = inhibition	Potency
Oc1cc(-c2ccncc2)cc2cccnc12		active: 16.4 µM
Cc1ccc(/C=C/C(=O)Nc2ccc(Oc3ccccc3)cc2)o1		inconclusive: 23.1 µM [inhibitor, partial curve]
COc1cc(C(=O)Nc2ccc3c(c2)N(C(=O)CCN(C)C)c2ccccc2CC3)cc(OC)c1OC		inconclusive: 16.4 µM [activator, partial curve]

# More records:

Structure (SMILES),"activity change, negative = inhibition",Potency
CCOC(=O)CCc1c(C)c2ccc3c(c2oc1=O)CN(CCCO)CO3,inactive: 4.84%,
Cc1ccc(S[C@@H](CCN2CC[C@H](NC(=O)OCc3ccccc3)CCC2=O)c2ccccc2)cc1,,"inconclusive: 1.64 µM [inhibitor, single point]"
C/C(=N/OC(=O)c1c(F)cccc1F)c1nccs1,,"inconclusive: 25.9 µM [activator, partial curve, poor fit]"
Nc1[nH]c(N=NC(=O)c2ccc(Cl)cc2)c2ccccc12,,"inconclusive: 13 µM [activator, partial curve]"
NC(=O)[C@@H]1CC2(CC(c3cccc(NC(=O)COc4ccc(Cl)cc4)c3)=NO2)CN1C(=O)COc1ccc(Cl)cc1 (some centres undefined),,"inconclusive: 6.51 µM [inhibitor, single point]"
Cc1nn2c(CN(C(=O)COc3ccccc3)c3ccccc3)nnc2c2ccccc12,,"inconclusive: 16.4 µM [inhibitor, single point]"
O=C1[C@@H](Oc2ccccc2)[C@@H](c2ccncc2)N1c1ccncc1,,"inconclusive: 29.1 µM [activator, partial curve, poor fit]"
CC(=O)Oc1ccc2oc(/C=C/N(C)C)c([N+](=O)[O-])c2c1,,"inconclusive: 20.6 µM [activator, partial curve]"
Cc1cc(=O)[nH]c(SCC(=O)Nc2cccc(S(=O)(=O)N3CCOCC3)c2)n1,,"inconclusive: 18.3 µM [activator, partial curve, poor fit]"
Cc1ccc2nc(Cl)c(/C=N/NC(=O)[C@H]3C[C@@H]3c3ccccc3)cc2c1,inactive: -6.33%,
Cc1cc(NC(=O)CCN2CCCCC2)ccc1Br,inactive: 16.2%,
Cc1ccc(C(C)C)c(OCCn2c(=O)oc3ccccc32)c1,inactive: 22.5%,
Cc1ccc(N=Nc2ccc(O)cc2)c(Br)c1,,"inconclusive: 10 µM [activator, partial curve]"
CCc1ccc2[nH]c(=O)c(CN(Cc3ccc(OC)cc3)Cc3nnnn3CCOC)cc2c1,inactive: 0%,
CC1CCCN(C(=O)COc2ccc(-c3ccccc3)cc2)C1 (centres undefined),inactive: -3.61%,
Cc1ccc(Nc2nc(N)nc(CN3CCN(Cc4ccc5c(c4)OCO5)CC3)n2)cc1C,,active: 13 µM
O=C(COC(=O)c1cc([N+](=O)[O-])ccc1NCCO)Nc1ccc2c(c1)OCO2,,"inconclusive: 7.3 µM [inhibitor, partial curve, poor fit]"
CCN(CC)S(=O)(=O)c1cccc(NC(=O)CC2CCCC2)c1,,"inconclusive: 29.1 µM [inhibitor, single point]"
O=C(c1nc2ccccc2s1)N1CCSCC1,,"inconclusive: 25.9 µM [activator, single point]"
COc1cccc(CN2CC(C(=O)NCCn3cccn3)CCC2=O)c1 (centres undefined),inactive: 0.46%,
CC(C)(C)C(=O)Nc1nc(C2CCCN2S(=O)(=O)c2ccc(Cl)cc2)cs1 (centres undefined),,"inconclusive: 32.6 µM [inhibitor, single point]"
Cn1c(N2CCN(S(=O)(=O)c3ccc(F)cc3)CC2)nc2ccccc21,,"inconclusive: 18.3 µM [inhibitor, single point]"
